The list is a part of this screen's results and no random one: it gathers tests that were run many times, whatever their T/C, doses with no T/C, and many T/C values between a quarter and a half above the control. Other doses and runs of a compound stand elsewhere. T/C is the treated group as % of the vehicle group. Some doses have a count of surviving animals in place of a T/C: the source holds a T/C of zero for them, seemingly a mark for toxic or unscored doses. Some survivor counts are full or nearly so, which does not show that the dose was tolerated: survival well below the control is almost never listed, so the zero probably covers shortened survival too. Counts of survivors are from the toxicity check (mostly the fifth day) where no day follows; animals may have died later. Schedule codes are those of the source, read here as Q, the interval in days (D) or hours (H), X, the number of doses. Some entries hold several experiments; the results are listed from low to high. Where survival is the endpoint, this PubChem deposit counts one and a half times the control or more as active, and values a quarter to a half above the control carry no call in these data; other NCI protocols may use other cut-offs. Signs of the kind (2×) say how often a value occurs here. Some T/C values carry the count of animals alive at the toxicity check (mostly the fifth day); without a count, all were alive then.
System: AKR/Lw mice, AKR lymphoma ip, median survival T/C
Experiment: NCI In Vivo Anticancer Drug Screen. Data for tumor model Lymphoma AKR (Transplanted) (intraperitoneal) in AKR/Lw mice
Conditions: T/C endpoint: median survival time, higher T/C = longer survival
Method: The antitumor activity of compounds was measured in mice bearing transplantable tumors. Survival or tumor size were measured and the results are expressed as the measurement made in the treated group (T) divided by the measurement made in the vehicle treated control group (C). The tumor model used in this assay is Lymphoma AKR (Transplanted) (intraperitoneal) in AKR/Lw mice

[1] = dose: 12.5 mg/kg/injection, schedule: Q01DX001 (ip), vehicle: Klucel (hydroxypropylcellulose) (HPC)
[2] = dose: 12.5 mg/kg/injection, schedule: Q07DX003 (ip), vehicle: Klucel (hydroxypropylcellulose) (HPC)
[3] = dose: 12.5 mg/kg/injection, schedule: Q07DX003 (ip), vehicle: saline
[4] = dose: 25.0 mg/kg/injection, schedule: Q01DX001 (ip), vehicle: Klucel (hydroxypropylcellulose) (HPC)
[5] = dose: 25.0 mg/kg/injection, schedule: Q01DX001 (ip), vehicle: saline
[6] = dose: 25.0 mg/kg/injection, schedule: Q07DX003 (ip), vehicle: Klucel (hydroxypropylcellulose) (HPC)
[7] = dose: 50.0 mg/kg/injection, schedule: Q01DX001 (ip), vehicle: Klucel (hydroxypropylcellulose) (HPC)
[8] = dose: 50.0 mg/kg/injection, schedule: Q01DX001 (ip), vehicle: saline
[9] = dose: 50.0 mg/kg/injection, schedule: Q07DX003 (ip), vehicle: Klucel (hydroxypropylcellulose) (HPC)
[10] = dose: 75.0 mg/kg/injection, schedule: Q01DX001 (ip), vehicle: Klucel (hydroxypropylcellulose) (HPC)
[11] = dose: 100.0 mg/kg/injection, schedule: Q01DX001 (ip), vehicle: saline
[12] = dose: 200.0 mg/kg/injection, schedule: Q01DX001 (ip), vehicle: Klucel (hydroxypropylcellulose) (HPC)
[13] = dose: 400.0 mg/kg/injection, schedule: Q01DX001 (ip), vehicle: Klucel (hydroxypropylcellulose) (HPC)

For `CC1CCC(NC(=O)N(CCCl)N=O)CC1` (stereo not given), the T/C (dose: 3.1 mg/kg/injection, schedule: Q07DX003 (ip), vehicle: Klucel (hydroxypropylcellulose) (HPC)) was 94, 100, 107, 112, 115 % of control (2×), the T/C (dose: 5.0 mg/kg/injection, schedule: Q14DX003 (ip), vehicle: saline with Tween-80, evaluated on day 5) was 104 and 117 % of control and the T/C (dose: 5.0 mg/kg/injection, schedule: Q14DX003 (ip), vehicle: saline with Tween-80, evaluated on day 9) was 91 % of control. The T/C (dose: 5.0 mg/kg/injection, schedule: Q14DX003 (ip), vehicle: saline with Tween-80, evaluated on day 60) was 104 and 117 % of control, the T/C (dose: 6.0 mg/kg/injection, schedule: Q01DX001 (ip), vehicle: saline with Tween-80, evaluated on day 5) was 112 and 130 % of control and the T/C (dose: 6.0 mg/kg/injection, schedule: Q01DX001 (ip), vehicle: saline with Tween-80, evaluated on day 60) was 112 and 130 % of control. For the same compound, the T/C (dose: 6.2 mg/kg/injection, schedule: Q07DX003 (ip), vehicle: Klucel (hydroxypropylcellulose) (HPC)) was 97, 100 (2×), 105 (2×), 121 % of control [9 of 10 alive], the T/C (dose: 6.25 mg/kg/injection, schedule: Q07DX003 (ip), vehicle: saline) was 134 % of control and the T/C (dose: 6.7 mg/kg/injection, schedule: Q04DX003 (ip), vehicle: saline with Tween-80, evaluated on day 5) was 146 % of control. For the same compound, the T/C (dose: 6.7 mg/kg/injection, schedule: Q04DX003 (ip), vehicle: saline with Tween-80, evaluated on day 60) was 146 % of control, the T/C (dose: 7.0 mg/kg/injection, schedule: Q01DX001 (ip), vehicle: saline with Tween-80, evaluated on day 5) was 138 % of control and the T/C (dose: 7.0 mg/kg/injection, schedule: Q01DX001 (ip), vehicle: saline with Tween-80, evaluated on day 60) was 138 % of control. The survivor count (dose: 10.0 mg/kg/injection, schedule: Q04DX003 (ip), vehicle: saline with Tween-80) was 9 of 10, the T/C (dose: 10.0 mg/kg/injection, schedule: Q14DX003 (ip), vehicle: saline with Tween-80, evaluated on day 5) was 115 and 123 % of control and the T/C (dose: 10.0 mg/kg/injection, schedule: Q14DX003 (ip), vehicle: saline with Tween-80, evaluated on day 9) was 108 and 114 % of control. The T/C (dose: 10.0 mg/kg/injection, schedule: Q14DX003 (ip), vehicle: saline with Tween-80, evaluated on day 60) was 115 and 123 % of control, the T/C (dose: 12.0 mg/kg/injection, schedule: Q01DX001 (ip), vehicle: saline with Tween-80, evaluated on day 5) was 111 and 128 % of control and the T/C (dose: 12.0 mg/kg/injection, schedule: Q01DX001 (ip), vehicle: saline with Tween-80, evaluated on day 60) was 111 and 128 % of control. The T/C (dose: 12.0 mg/kg/injection, schedule: Q01DX001 (ip), vehicle: saline) was 131 % of control, the T/C [1] was 100, 108, 120, 125, 140 % of control [9 of 10 alive] and the survivor count [1] was 8 of 10. For the same compound, the T/C [2] was 105 (3×) and 110 % of control (2×), the survivor count [2] was 10 of 10 and the T/C [3] was 131 % of control (2×). For the same compound, the survivor count [3] was 10 of 10, the T/C (dose: 20.0 mg/kg/injection, schedule: Q10DX002 (ip), vehicle: saline with Tween-80) was 128 % of control and the T/C (dose: 20.0 mg/kg/injection, schedule: Q14DX003 (ip), vehicle: saline with Tween-80, evaluated on day 5) was 123 % of control. The T/C (dose: 20.0 mg/kg/injection, schedule: Q14DX003 (ip), vehicle: saline with Tween-80, evaluated on day 9) was 110 and 119 % of control, the T/C (dose: 20.0 mg/kg/injection, schedule: Q14DX003 (ip), vehicle: saline with Tween-80, evaluated on day 60) was 123 % of control and the T/C (dose: 24.0 mg/kg/injection, schedule: Q01DX001 (ip), vehicle: saline with Tween-80, evaluated on day 5) was 109 and 127 % of control. The T/C (dose: 24.0 mg/kg/injection, schedule: Q01DX001 (ip), vehicle: saline with Tween-80, evaluated on day 60) was 109 and 127 % of control [9 of 10 alive], the T/C [4] was 93, 108, 133, 145 % of control and the survivor count [4] was 4 of 10 and 9 of 10. The T/C [5] was 128 and 134 % of control [9 of 10 alive], the survivor count [5] was 9 of 10 and the T/C [6] was 107 and 115 % of control. For the same compound, the survivor count [6] was 10 of 10, the T/C (dose: 25.0 mg/kg/injection, schedule: Q07DX003 (ip), vehicle: saline) was 125 % of control and the T/C (dose: 30.0 mg/kg/injection, schedule: Q14DX003 (ip), vehicle: saline with Tween-80) was 132 % of control. For the same compound, the survivor count (dose: 40.0 mg/kg/injection, schedule: Q04DX004 (ip), vehicle: Klucel (hydroxypropylcellulose) (HPC)) was 9 of 10, the T/C (dose: 40.0 mg/kg/injection, schedule: Q14DX003 (ip), vehicle: saline with Tween-80) was 148 % of control and the T/C [7] was 104 [9 of 10 alive], 108, 129 % of control. For the same compound, the survivor count [7] was 4 of 10, 5 of 10, 9 of 10, the T/C [8] was 131 and 140 % of control and the survivor count [8] was 10 of 10. The T/C [9] was 105 % of control [9 of 10 alive], the survivor count [9] was 6 of 10 and 10 of 10 and the T/C [10] was 91 and 108 % of control. For the same compound, the survivor count [10] was 0 of 10, 3 of 10, 6 of 10, 9 of 10 and the survivor count [11] was 4 of 10 and 7 of 10.
For `COc1cc2c(cc1OC)C1CCN3CCCC3N1CC2` (stereo not given), the survivor count [12] was 7 of 10 and the survivor count [13] was 0 of 10.
With `COc1cccc2c1C(=O)c1c(O)c3c(c(O)c1C2=O)C[C@@](O)(C(=O)CO)C[C@@H]3OC1CC(N)C(O)C(C)O1` (stereo not given in full) the T/C (dose: 0.25 mg/kg/injection, schedule: Q01DX006 (sc), vehicle: saline) was 135 % of control, the T/C (dose: 0.7 mg/kg/injection, schedule: Q04DX003 (sc), vehicle: saline, evaluated on day 5) was 127 % of control and the T/C (dose: 0.7 mg/kg/injection, schedule: Q04DX003 (sc), vehicle: saline, evaluated on day 60) was 127 % of control. The T/C (dose: 1.0 mg/kg/injection, schedule: Q01DX006 (sc), vehicle: saline) was 135 % of control, the T/C (dose: 1.3 mg/kg/injection, schedule: Q04DX003 (sc), vehicle: saline, evaluated on day 5) was 112 and 128 % of control and the T/C (dose: 1.3 mg/kg/injection, schedule: Q04DX003 (sc), vehicle: saline, evaluated on day 60) was 112 and 128 % of control. The survivor count (dose: 2.0 mg/kg/injection, schedule: Q01DX006 (ip), vehicle: saline) was 10 of 10, the T/C (dose: 2.0 mg/kg/injection, schedule: Q04DX003 (sc), vehicle: saline, evaluated on day 5) was 105 and 120 % of control and the T/C (dose: 2.0 mg/kg/injection, schedule: Q04DX003 (sc), vehicle: saline, evaluated on day 60) was 105 and 120 % of control.
In the case of `O=C1CSC(=S)N1c1ccco1`, the survivor count [13] is reported as 10 of 10.
With `OCC1=C(CO)C2(Cl)C(Cl)=C(Cl)C1(Cl)C2(Cl)Cl` the survivor count (dose: 100.0 mg/kg/injection, schedule: Q01DX001 (ip), vehicle: Klucel (hydroxypropylcellulose) (HPC)) was 10 of 10.
With `CC(=O)c1cccc(N)c1` the T/C [12] was 127 % of control.
`COc1cc(N)c2ncccc2c1SC` was tested, and the survivor count [11] was 10 of 10.

From PubChem BioAssay AID190 (DTP/NCI, 2004)
